From the supplement of paper PMC10849652
The list shows a part of the results.

Chains of the proteins cited; added tags and fusions are not shown. Lines headed by an entry give the natural chain unless they say otherwise; changes in a name come on top.
UniProt P16219: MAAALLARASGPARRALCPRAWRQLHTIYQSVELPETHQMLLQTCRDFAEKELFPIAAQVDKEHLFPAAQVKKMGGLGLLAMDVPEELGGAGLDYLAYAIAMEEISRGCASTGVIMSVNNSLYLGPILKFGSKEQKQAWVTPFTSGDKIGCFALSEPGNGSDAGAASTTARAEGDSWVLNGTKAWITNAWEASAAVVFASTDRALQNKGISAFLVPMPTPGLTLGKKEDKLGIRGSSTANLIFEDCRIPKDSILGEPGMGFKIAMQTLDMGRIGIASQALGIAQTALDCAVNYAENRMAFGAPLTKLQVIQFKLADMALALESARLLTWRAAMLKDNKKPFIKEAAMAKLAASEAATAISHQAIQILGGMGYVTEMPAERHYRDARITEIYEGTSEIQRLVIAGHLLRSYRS
UniProt P53396: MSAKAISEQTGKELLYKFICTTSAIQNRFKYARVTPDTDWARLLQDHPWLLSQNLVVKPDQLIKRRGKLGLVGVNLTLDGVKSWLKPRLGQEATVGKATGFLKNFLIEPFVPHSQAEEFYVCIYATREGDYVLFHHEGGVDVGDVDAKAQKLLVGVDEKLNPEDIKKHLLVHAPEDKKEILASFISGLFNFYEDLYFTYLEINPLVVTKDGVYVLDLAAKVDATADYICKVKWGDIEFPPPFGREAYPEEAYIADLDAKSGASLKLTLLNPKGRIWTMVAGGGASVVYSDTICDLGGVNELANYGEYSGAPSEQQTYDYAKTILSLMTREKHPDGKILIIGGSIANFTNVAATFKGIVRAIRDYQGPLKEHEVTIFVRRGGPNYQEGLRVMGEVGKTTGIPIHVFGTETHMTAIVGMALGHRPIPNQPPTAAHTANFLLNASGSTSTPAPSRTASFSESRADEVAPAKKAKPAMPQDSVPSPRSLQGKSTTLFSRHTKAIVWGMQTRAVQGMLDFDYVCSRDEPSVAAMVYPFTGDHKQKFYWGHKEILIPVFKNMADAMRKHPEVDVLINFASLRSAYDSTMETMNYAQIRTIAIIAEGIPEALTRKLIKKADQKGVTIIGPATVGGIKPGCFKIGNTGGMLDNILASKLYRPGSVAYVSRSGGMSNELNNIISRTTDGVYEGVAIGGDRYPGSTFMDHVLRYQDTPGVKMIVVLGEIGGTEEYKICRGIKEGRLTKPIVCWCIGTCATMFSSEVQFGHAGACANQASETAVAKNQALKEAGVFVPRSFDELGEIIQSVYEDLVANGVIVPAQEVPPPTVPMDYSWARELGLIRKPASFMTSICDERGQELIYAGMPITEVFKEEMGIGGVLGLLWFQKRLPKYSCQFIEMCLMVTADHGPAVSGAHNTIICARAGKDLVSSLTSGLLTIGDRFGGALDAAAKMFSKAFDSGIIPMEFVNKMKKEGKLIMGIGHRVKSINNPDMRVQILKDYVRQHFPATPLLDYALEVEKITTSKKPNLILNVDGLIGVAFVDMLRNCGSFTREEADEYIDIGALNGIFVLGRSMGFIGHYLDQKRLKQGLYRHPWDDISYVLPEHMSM
UniProt Q9NP58: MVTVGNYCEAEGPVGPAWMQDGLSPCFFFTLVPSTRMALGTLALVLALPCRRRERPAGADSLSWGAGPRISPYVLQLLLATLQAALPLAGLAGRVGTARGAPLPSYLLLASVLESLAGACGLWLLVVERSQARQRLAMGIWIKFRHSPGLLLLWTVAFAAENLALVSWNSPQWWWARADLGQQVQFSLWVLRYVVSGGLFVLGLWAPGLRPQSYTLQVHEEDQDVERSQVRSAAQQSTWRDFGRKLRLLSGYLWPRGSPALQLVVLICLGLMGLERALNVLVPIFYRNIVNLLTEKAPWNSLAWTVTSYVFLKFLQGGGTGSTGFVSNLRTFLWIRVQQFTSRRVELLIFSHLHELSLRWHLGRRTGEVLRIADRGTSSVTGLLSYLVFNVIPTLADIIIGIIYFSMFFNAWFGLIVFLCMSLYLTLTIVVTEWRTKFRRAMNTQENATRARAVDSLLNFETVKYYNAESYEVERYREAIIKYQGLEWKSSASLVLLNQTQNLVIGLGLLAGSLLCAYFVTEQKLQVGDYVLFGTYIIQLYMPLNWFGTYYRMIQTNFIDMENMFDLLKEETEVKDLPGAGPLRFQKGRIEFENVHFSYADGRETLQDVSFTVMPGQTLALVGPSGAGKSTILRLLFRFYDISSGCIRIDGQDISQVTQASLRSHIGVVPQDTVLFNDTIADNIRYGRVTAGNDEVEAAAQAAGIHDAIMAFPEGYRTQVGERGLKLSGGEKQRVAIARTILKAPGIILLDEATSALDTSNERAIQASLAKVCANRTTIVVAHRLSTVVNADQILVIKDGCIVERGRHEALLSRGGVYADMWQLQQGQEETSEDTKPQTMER
UniProt Q9BTE6: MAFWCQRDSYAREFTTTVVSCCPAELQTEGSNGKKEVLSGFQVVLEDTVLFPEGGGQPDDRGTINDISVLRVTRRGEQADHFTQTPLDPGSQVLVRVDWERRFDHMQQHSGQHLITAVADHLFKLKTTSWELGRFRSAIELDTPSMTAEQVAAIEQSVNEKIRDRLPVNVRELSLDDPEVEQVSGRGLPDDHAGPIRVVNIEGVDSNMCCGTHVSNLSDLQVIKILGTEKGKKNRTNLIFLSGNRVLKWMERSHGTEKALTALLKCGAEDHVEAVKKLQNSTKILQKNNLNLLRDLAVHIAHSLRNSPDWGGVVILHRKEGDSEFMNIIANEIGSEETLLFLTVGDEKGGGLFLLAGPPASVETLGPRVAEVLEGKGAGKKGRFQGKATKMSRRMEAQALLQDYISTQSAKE
UniProt P78363: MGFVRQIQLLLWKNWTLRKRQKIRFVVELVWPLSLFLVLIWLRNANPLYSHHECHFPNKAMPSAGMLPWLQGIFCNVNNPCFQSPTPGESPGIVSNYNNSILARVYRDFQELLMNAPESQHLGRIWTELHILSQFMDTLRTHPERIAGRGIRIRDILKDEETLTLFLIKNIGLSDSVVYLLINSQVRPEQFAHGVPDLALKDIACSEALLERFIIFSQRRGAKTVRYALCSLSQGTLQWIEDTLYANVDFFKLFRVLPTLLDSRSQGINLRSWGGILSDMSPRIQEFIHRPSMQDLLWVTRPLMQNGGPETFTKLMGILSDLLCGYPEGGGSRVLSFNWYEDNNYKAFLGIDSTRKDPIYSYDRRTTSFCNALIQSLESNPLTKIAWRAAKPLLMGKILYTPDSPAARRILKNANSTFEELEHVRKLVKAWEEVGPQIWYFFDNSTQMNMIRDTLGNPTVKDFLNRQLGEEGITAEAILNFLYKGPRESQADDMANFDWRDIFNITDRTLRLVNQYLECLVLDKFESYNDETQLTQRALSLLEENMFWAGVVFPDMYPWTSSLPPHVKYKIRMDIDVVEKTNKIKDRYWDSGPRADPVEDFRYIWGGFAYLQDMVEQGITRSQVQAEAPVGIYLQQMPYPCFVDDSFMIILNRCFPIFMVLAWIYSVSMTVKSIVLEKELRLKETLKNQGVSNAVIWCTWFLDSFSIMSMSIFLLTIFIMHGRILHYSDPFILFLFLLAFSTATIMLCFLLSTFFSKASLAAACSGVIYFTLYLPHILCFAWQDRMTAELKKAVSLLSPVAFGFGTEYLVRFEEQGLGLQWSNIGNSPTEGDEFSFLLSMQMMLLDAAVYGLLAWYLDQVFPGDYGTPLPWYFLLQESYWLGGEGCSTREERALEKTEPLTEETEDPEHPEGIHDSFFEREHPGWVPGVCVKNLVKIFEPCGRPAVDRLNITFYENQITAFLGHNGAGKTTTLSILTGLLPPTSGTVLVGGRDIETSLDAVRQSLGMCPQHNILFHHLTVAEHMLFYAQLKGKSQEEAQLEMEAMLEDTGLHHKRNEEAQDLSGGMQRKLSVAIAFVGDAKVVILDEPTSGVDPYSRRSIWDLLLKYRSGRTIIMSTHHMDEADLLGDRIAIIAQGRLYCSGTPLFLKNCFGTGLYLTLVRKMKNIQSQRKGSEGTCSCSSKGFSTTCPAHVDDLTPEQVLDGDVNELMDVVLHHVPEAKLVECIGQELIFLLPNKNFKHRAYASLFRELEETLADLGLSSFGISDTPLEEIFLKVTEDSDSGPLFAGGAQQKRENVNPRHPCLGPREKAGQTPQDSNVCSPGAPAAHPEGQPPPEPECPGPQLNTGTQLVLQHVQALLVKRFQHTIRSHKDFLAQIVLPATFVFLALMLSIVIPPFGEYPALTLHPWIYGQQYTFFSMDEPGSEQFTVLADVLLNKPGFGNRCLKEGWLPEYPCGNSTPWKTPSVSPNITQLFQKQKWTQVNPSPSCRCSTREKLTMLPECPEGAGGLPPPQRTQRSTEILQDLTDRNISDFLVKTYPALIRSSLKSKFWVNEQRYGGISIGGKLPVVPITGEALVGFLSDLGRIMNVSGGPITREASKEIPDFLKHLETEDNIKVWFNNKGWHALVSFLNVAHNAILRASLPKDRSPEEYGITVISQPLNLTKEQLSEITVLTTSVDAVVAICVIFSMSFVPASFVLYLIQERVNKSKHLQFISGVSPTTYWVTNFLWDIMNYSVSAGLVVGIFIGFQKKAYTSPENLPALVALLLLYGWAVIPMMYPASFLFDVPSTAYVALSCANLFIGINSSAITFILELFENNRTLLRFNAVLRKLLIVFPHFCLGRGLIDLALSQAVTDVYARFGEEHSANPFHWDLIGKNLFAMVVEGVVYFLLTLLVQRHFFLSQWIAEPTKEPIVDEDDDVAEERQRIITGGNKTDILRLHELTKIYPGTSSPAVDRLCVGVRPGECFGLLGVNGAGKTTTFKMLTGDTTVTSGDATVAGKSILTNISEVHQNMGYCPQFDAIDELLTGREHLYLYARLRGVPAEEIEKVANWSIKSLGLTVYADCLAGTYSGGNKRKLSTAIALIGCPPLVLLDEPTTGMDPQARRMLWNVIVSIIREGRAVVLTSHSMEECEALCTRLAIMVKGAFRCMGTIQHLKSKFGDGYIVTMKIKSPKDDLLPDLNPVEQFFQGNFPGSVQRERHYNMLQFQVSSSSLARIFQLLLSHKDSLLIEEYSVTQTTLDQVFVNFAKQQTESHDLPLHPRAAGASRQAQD
UniProt Q9BR61: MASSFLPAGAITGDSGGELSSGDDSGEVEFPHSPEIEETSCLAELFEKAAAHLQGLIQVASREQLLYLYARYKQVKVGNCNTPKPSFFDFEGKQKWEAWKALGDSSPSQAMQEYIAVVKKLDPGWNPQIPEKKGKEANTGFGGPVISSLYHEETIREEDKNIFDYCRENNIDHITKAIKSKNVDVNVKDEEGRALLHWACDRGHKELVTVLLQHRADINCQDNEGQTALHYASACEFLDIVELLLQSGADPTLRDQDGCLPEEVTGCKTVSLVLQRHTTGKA
UniProt Q9UG63: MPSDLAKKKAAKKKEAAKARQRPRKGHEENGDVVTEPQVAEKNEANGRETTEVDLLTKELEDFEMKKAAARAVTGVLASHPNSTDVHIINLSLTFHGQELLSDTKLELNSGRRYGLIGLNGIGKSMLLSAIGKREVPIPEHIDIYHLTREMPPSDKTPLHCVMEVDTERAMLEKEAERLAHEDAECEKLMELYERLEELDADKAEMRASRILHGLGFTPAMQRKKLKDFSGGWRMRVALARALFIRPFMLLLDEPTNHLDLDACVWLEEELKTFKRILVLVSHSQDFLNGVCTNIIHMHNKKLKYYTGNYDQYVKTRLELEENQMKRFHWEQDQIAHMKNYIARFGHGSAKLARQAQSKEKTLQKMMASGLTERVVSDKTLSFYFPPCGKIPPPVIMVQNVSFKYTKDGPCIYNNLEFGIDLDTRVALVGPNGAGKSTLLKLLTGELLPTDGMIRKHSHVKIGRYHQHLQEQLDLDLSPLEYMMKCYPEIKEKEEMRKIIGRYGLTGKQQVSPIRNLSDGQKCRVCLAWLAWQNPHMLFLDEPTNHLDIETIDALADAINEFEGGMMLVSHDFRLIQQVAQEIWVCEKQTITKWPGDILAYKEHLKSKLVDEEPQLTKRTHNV
UniProt O95870: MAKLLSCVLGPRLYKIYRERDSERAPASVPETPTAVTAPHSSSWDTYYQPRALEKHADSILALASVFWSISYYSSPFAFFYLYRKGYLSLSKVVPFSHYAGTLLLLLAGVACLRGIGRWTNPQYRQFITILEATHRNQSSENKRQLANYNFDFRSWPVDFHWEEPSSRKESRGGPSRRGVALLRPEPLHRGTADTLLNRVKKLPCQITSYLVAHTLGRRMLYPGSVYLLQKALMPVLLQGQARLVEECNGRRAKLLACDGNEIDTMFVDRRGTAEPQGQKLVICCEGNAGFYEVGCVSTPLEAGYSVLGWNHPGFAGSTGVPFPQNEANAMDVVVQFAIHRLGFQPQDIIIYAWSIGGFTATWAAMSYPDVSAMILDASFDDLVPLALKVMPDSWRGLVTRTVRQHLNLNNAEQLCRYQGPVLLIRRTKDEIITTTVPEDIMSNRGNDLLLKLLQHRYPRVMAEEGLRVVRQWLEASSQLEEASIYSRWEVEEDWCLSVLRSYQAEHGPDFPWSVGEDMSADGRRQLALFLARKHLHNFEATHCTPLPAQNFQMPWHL

What follows are targets tested with C1=CC2=C(C=CC(=C2)/C=C\3/C(=O)NC(=NCC4=CC=CS4)S3)N=C1 (assay: log2 fold change, soluble protein after heating vs DMSO (PISA); higher = thermal stabilisation; K562 lysate, 10 uM; active = over 0.2 and 3.5 SD of the protein, either way, in both replicates (recomputed)).
How it was run: (§1)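 Pellets of K562 cells were dounce-homogenised in PBS pH 7.4 with 1 mM MgCl2, and the crude extract was held at 1 mg/mL protein for a 30 min treatment with 10 μM compound. Aliquots were heated for 3 min over 48°C-58°C and pooled before NP-40 was added to 0.5% at 4°C. The supernatant from 21,000xg for 90 min was quantified by TMTpro 16plex LC-MS/MS with channel sums equalised. Values are reported from duplicates as log-two fold change in thermal stability relative to solvent controls.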

log2 fold change, inactive:
ACADVL isoform 3 (UniProt P49748) 0.025
ABCC4 (UniProt O15439) 0
ABCE1 (UniProt H0Y990) -0.007
ABCE1 (UniProt P61221) 0.014
ABHD5 (UniProt Q8WTS1) -0.036
ACADS (UniProt P16219) 0.062
ACLY (UniProt P53396) -0.013
ABCB6 (UniProt Q9NP58) -0.005
AATF (UniProt Q9NY61) -0.036
ACOT13 (UniProt Q9NPJ3) 0.015
ABI1 isoform 9 (UniProt Q8IZP0) 0.01
ACACA isoform 4 (UniProt Q13085) -0.012
ACBD3 (UniProt Q9H3P7) -0.004
ABITRAM (UniProt Q9NX38) -0.032
ABCB8 (UniProt Q9NUT2) 0.021
ABCC5 (UniProt O15440) -0.028
AARSD1 isoform 3 (UniProt Q9BTE6) 0.014
AASDHPPT (UniProt Q9NRN7) 0.012
ABCA3 (UniProt Q99758) 0.036
ABCC1 (UniProt P33527) 0.004
ABCB7 isoform 2 (UniProt O75027) -0.022
ABCF3 (UniProt Q9NUQ8) 0.011
ACADM isoform 2 (UniProt P11310) 0.23
ABCA4 (UniProt P78363) -0.038
AAK1, A0A096LP25 0.328
ABHD11 (UniProt Q8NFV4) 0.057
AAGAB (UniProt Q6PD74) -0.016
ACBD6 (UniProt Q9BR61) 0.024
ABCF2 isoform 2 (UniProt Q9UG63) -0.025
ABHD16A (UniProt O95870) 0.046
ACCS (UniProt Q96QU6) -0.03
ACACB (UniProt O00763) 0.018

Each target was assayed with C1=CC2=NC=CN=C2C=C1/C=C/3\C(=O)NC(=O)S3 in the same assay as above.
How it was run: as §1

log2 fold change, inactive:
ACADVL isoform 3 (UniProt P49748) -0.007
ABCC4 (UniProt O15439) -0.103
ABCE1 (UniProt H0Y990) -0.027
ABCE1 (UniProt P61221) -0.003
ABHD5 (UniProt Q8WTS1) -0.064
ACADS (UniProt P16219) -0.012
ACLY (UniProt P53396) -0.011
ABCB6 (UniProt Q9NP58) -0.018
AATF (UniProt Q9NY61) 0.052
ACOT13 (UniProt Q9NPJ3) -0.001
ABI1 isoform 9 (UniProt Q8IZP0) -0.007
ACACA isoform 4 (UniProt Q13085) 0.011
ACBD3 (UniProt Q9H3P7) 0.006
ABITRAM (UniProt Q9NX38) 0.023
ABCB8 (UniProt Q9NUT2) 0.034
ABCC5 (UniProt O15440) -0.127
AARSD1 isoform 3 (UniProt Q9BTE6) 0.012
AASDHPPT (UniProt Q9NRN7) 0.028
ABCA3 (UniProt Q99758) -0.096
ABCC1 (UniProt P33527) 0.016
ABCB7 isoform 2 (UniProt O75027) -0.051
ABCF3 (UniProt Q9NUQ8) 0.009
ACADM isoform 2 (UniProt P11310) 0.085
ABCA4 (UniProt P78363) -0.042
AAK1, A0A096LP25 0.098
ABHD11 (UniProt Q8NFV4) -0.008
AAGAB (UniProt Q6PD74) -0.003
ACBD6 (UniProt Q9BR61) -0.032
ABCF2 isoform 2 (UniProt Q9UG63) 0.01
ABHD16A (UniProt O95870) -0.042
ACCS (UniProt Q96QU6) -0.008
ACACB (UniProt O00763) -0.02

What follows are targets tested with C1=CC=C(C=C1)C2=NC(=C(N2)C3=CC=NC=C3)C4=CC(=C(C=C4)Cl)O in the same assay as above.
How it was run: as §1

log2 fold change, inactive:
ACADVL isoform 3 (UniProt P49748) -0.045
ABCC4 (UniProt O15439) -0.009
ABCE1 (UniProt H0Y990) -0.061
ABCE1 (UniProt P61221) -0.01
ABHD5 (UniProt Q8WTS1) 0.003
ACADS (UniProt P16219) 0.001
ACLY (UniProt P53396) -0.016
ABCB6 (UniProt Q9NP58) -0.002
AATF (UniProt Q9NY61) -0.019
ACOT13 (UniProt Q9NPJ3) 0.012
ABI1 isoform 9 (UniProt Q8IZP0) 0.009
ACACA isoform 4 (UniProt Q13085) 0.019
ACBD3 (UniProt Q9H3P7) 0.009
ABITRAM (UniProt Q9NX38) -0.045
ABCB8 (UniProt Q9NUT2) -0.021
ABCC5 (UniProt O15440) -0.112
AARSD1 isoform 3 (UniProt Q9BTE6) -0.002
AASDHPPT (UniProt Q9NRN7) 0.011
ABCA3 (UniProt Q99758) 0.037
ABCC1 (UniProt P33527) -0.008
ABCB7 isoform 2 (UniProt O75027) 0.079
ABCF3 (UniProt Q9NUQ8) -0.011
ACADM isoform 2 (UniProt P11310) 0.101
ABCA4 (UniProt P78363) -0.015
AAK1, A0A096LP25 -0.006
ABHD11 (UniProt Q8NFV4) 0.171
AAGAB (UniProt Q6PD74) -0.006
ACBD6 (UniProt Q9BR61) -0.014
ABCF2 isoform 2 (UniProt Q9UG63) 0.018
ABHD16A (UniProt O95870) 0.015
ACCS (UniProt Q96QU6) 0.075
ACACB (UniProt O00763) -0.01
